These are yes or no findings as the source states them, for the method shown. Some binding calls cover weakened binding; strength is not graded here.
What was measured:
[1] = biological target: T1, PDZ domain of GIPC/synectin displayed on T7 phage (UniProt O14908); test: phage ELISA
T1 sequence (looked up): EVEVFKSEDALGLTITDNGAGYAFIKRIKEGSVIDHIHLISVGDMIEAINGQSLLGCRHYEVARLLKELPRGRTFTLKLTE

[2] = biological target: T1, PDZ domain of GIPC/synectin displayed on T7 phage; test: phage binding assay (ELISA), N-terminal biotinylated peptide, GIPC-PDZ T7 phage

Binder: PSQSSSEA (N-terminal biotin) [N-terminal biotinylated blocking peptide PSQSSSEA (SEQ ID NO: 3) (from GAIP)]
- binding [1]: binds
- binding [2]: binds

From US20120040915A1 (MAYO FOUNDATION FOR MEDICAL EDUCATION AND RESEARCH, published 2012)
